Article PMC6077249, “Insights into Centromere DNA Bending Revealed by the Cryo-EM Structure of the Core Centromere Binding Factor 3 with Ndc10”
Results are given in words; binding and its absence hold for the method and conditions named. Some results given as binding are weak or reduced against the parent protein; the word gives no strength.

By UniProt entry, the sequences of proteins in these tests, tags left out. Where a name states a change or a piece, a line headed by the entry shows the natural chain unless it says otherwise. Residues count along the entry.
UniProt P40969, residues 47-608: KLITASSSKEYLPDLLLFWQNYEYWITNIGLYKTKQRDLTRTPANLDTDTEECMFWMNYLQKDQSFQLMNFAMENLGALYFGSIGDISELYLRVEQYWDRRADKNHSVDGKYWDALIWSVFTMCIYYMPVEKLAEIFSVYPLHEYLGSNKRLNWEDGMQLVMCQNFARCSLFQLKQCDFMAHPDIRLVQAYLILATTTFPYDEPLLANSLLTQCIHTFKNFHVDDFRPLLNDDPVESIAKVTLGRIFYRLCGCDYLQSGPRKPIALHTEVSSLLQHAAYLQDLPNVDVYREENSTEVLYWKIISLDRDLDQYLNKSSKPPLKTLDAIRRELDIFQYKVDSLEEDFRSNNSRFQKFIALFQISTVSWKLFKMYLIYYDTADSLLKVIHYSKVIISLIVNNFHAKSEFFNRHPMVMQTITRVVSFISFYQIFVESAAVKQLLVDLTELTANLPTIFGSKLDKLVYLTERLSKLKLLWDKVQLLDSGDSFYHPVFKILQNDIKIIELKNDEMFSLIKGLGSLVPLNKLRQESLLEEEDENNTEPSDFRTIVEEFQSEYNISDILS
UniProt P35203, residues 2-478: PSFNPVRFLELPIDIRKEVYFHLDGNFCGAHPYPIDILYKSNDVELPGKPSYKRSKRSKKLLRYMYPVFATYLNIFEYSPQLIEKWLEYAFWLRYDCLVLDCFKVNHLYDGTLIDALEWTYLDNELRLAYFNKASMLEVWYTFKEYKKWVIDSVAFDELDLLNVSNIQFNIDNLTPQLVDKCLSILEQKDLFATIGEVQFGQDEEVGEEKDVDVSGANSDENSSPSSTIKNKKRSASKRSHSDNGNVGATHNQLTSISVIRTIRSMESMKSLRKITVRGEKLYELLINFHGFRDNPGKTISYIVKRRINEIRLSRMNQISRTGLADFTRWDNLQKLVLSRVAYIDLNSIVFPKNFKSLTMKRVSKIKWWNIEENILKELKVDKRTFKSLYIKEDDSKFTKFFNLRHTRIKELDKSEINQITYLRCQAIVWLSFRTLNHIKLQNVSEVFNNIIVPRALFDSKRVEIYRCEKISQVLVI
UniProt P52286, residues 2-194: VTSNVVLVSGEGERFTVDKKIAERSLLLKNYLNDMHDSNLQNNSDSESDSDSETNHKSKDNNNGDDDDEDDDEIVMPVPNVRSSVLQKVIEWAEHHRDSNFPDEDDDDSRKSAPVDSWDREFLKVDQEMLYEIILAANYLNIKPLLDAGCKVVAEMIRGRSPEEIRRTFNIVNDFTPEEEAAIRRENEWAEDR

Experiments:
[1] = biological target: Cep3ΔN (N-terminally truncated Cep3, residues 47–608, lacking the Zn2Cys6 domain) (S. cerevisiae) (UniProt P40969); assay: cryo-EM structure; CBF3CCΔN co-expressed in S. cerevisiae and co-purified; 0.12 and 0.24 mg/ml on UltrAuFoil grids; 3.7 Å map; buffer 15 mM Tris pH 8.0, 200 mM NaCl, 2 mM DTT; both purified
Ctf13 (S. cerevisiae) = Ctf13 (S. cerevisiae) (UniProt P35203); assay: as above

Ctf13 (from UniProt P35203 2-478)
binding [1]: binds

Skp1 (from UniProt P52286 2-194)
binding (Ctf13 (S. cerevisiae)): binds
